The list shows a part of the results. Further columns of the screen follow, without active or inactive calls. The list favours compounds with an active or inconclusive main result. Potencies come from curve fits of mixed quality, noted in brackets.
Assay: qHTS Assay for Lipid Storage Modulators in Drosophila S3 Cells;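 for cell number change: cells counted by Cell Tracker Red CMTPX staining in the red channel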
Settings: BODIPY lipid droplet fluorescence, 18-24 h; for cell number change: measured here: cell count max response, cells fed with added oleic acid
Outline: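 Drosophila S3 cells loaded with oleic acid (400 uM, as added) and compounds at several concentrations; lipid droplets imaged by 488-nm laser-scanning cytometry, 500–530 nm intensity and object ratio to cell channel. Percent activity normalized to 20 uM Triacsin C.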

[1] = measured here: lipid fluorescence (Fed channel) AC50, cells fed with added oleic acid
[2] = measured here: cell number channel AC50, cells fed with added oleic acid

Row | SMILES | cell number change [%] | AC50 [1] | AC50 [2]
1 | COc1ccc(Cl)c(N2CCN(CCCNC(=O)Nc3ccc(C)cc3)CC2)c1 | -24.5 | 18.4 µM [rising, single point] | 
2 | CC(=O)N(CCCc1ccc(C(C)(C)C)cc1)CCCN(C)C | 7.82 |  | 
3 | O=C(Nc1cccnc1Cl)c1cc(-c2ccc(Cl)cc2)on1 | 16.2 | 6.51 µM [rising, single point] | 
4 | Cn1c(C(=O)NCc2ccc3c(c2)OCO3)cc2sccc21 | -22.9 | 9.2 µM [rising, partial curve, poor fit] | 
5 | CC(OC(=O)c1cc(=O)[nH]c2ccccc12)C(=O)Nc1ccc(Cl)cn1 (centres undefined) | -8.89 |  | 
6 | Cc1ccc2c(c1)C(=O)CCN2 | -1.26 |  | 0.00651 µM [falling, full curve]
7 | CCCOc1ccc(-c2nn(-c3ccccc3)cc2/C=C2\SC(=S)N(C3CCS(=O)(=O)C3)C2=O)cc1 (centres undefined) | 20.8 | 5.8 µM [falling, full curve, poor fit] | 
8 | CCn1c(CC(=O)Nc2ccccc2)nnc1SCC(=O)Nc1ccccc1C(=O)OC |  | 0.82 µM [rising, full curve] | 2.06 µM [rising, partial curve]
9 | CC1(C)OC(=O)C(=CNc2ccc(F)cc2)C(=O)O1 | 5.3 | 29.1 µM [rising, single point] | 
10 | CCC(C)c1ccccc1N1CC(C(=O)N2CCN(S(=O)(=O)c3ccccc3Br)CC2)CC1=O (centres undefined) |  | 23.1 µM [falling, single point] | 0.164 µM [falling, full curve, poor fit]
11 | Cc1ccc(NC(=O)c2cnccn2)c(OC(F)F)c1 | 242 | 9.2 µM [rising, partial curve] | 8.2 µM [rising, partial curve]
12 | COCCN(C(=O)c1ccccc1)c1nnc(-c2cccnc2)s1 | -20.1 | 0.92 µM [falling, full curve, poor fit] | 
13 | Cc1ccc(C(=O)c2c(NC(=O)c3ccncc3)sc3c2CCCC3)cc1 | 62 | 7.31 µM [rising, partial curve] | 6.51 µM [rising, partial curve]
14 | c1ccc(-c2cc(-c3nc4ccccc4[nH]3)c3ccccc3n2)cc1 | 3.51 | 1.16 µM [falling, full curve] | 
15 | O=c1cnc2ccccc2n1Cc1ccccc1C(F)(F)F | -2.02 |  | 
16 | COCCNC(=O)/C(C#N)=C/c1cccc(/C=C(\C#N)C(=O)NCCOC)c1 | 11.5 | 1.84 µM [falling, partial curve, poor fit] | 

Row | SMILES | cell number change [%] | AC50 [1] | AC50 [2]
17 | Cc1ccc(C)c(NC(=O)CN(C)C(=O)c2sccc2C)c1 |  | 29.1 µM [falling, single point] | 
18 | COc1cc(/C=C(\C#N)C(=O)Nc2cc(C(F)(F)F)ccc2Cl)ccc1OCC(=O)Nc1cccc(C(F)(F)F)c1 | -10.6 | 29.1 µM [falling, single point] | 
19 | C=CCNC(=O)NC(=O)COC(=O)C(C)Oc1ccc(Cl)cc1Cl (centres undefined) | -31 |  | 32.6 µM [falling, single point]
20 | O=C(Nc1cccc(S(=O)(=O)N2CCOCC2)c1)c1ccc(N2CCCC2=O)cc1 | -30.9 | 29.1 µM [falling, single point] | 32.6 µM [falling, single point]
21 | O=C(CSc1nnc(Cc2cccs2)n1C1CCCCC1)N1CCCc2ccccc21 | 14.8 | 0.731 µM [falling, single point] | 
22 | C/C(=N\NC(=O)c1c[nH]c2ccccc12)c1ccccn1 | 22.7 |  | 
23 | CN(C(=O)CSc1nc(N)nn1-c1ccccc1)c1ccccc1 | 33.6 | 25.9 µM [rising, single point] | 18.4 µM [rising, single point]
24 | CCCCn1c(CCC)nc([N+](=O)[O-])c1Sc1ccc(Cl)cn1 | -17.2 | 9.2 µM [falling, partial curve] | 
25 | O=C(OCC(=O)N1CCOCC1)c1ccc(Br)cc1 | 25.7 | 29.1 µM [rising, single point] | 
26 | O=C(CSCc1cccc(CSCC(=O)Nc2ccc3ccccc3c2)n1)Nc1ccc2ccccc2c1 | -12.1 |  | 0.00411 µM [rising, full curve, poor fit]
27 | COc1cccc(CN2CCNC(=O)C2CC(=O)NCC(C)(C)N2CCOCC2)c1OC (centres undefined) | 15.3 |  | 
28 | NC(=O)c1ccc(NC(=O)COC(=O)CNC(=O)c2sc3ccccc3c2Cl)cc1 | 2.76 | 0.146 µM [falling, partial curve, poor fit] | 
29 | COc1ccc(-n2ncc3c2CC(C)(C)CC3NC(=O)CCn2nc(C)cc2C)cc1 (centres undefined) | -5.38 |  | 
30 | CCCCn1c(N)c(N(CC(C)C)C(=O)CSc2ccccc2C)c(=O)[nH]c1=O | 12.5 |  | 0.651 µM [falling, single point]
31 | CCCOC(=O)c1ccc(-n2nnnc2SCC(=O)N2CCCCC2)cc1 | -22.7 | 29.1 µM [falling, single point] | 

In a second layout: entries from further up.
Row	SMILES	cell number change [%]	AC50 [1]	AC50 [2]
14	c1ccc(-c2cc(-c3nc4ccccc4[nH]3)c3ccccc3n2)cc1	3.51	1.16 µM [falling, full curve]	
15	O=c1cnc2ccccc2n1Cc1ccccc1C(F)(F)F	-2.02		
